According to article PMC12376677:
No constants are given. Whether binding was seen depends on the method and setting. In cells and extracts the contact can be indirect. Some binding calls cover weakened binding; strength is not graded here. For some assays here: Tags and fused reporters may be left off the sequences shown.

Chains of the proteins cited; added tags and fusions are not shown.
UniProt O75925: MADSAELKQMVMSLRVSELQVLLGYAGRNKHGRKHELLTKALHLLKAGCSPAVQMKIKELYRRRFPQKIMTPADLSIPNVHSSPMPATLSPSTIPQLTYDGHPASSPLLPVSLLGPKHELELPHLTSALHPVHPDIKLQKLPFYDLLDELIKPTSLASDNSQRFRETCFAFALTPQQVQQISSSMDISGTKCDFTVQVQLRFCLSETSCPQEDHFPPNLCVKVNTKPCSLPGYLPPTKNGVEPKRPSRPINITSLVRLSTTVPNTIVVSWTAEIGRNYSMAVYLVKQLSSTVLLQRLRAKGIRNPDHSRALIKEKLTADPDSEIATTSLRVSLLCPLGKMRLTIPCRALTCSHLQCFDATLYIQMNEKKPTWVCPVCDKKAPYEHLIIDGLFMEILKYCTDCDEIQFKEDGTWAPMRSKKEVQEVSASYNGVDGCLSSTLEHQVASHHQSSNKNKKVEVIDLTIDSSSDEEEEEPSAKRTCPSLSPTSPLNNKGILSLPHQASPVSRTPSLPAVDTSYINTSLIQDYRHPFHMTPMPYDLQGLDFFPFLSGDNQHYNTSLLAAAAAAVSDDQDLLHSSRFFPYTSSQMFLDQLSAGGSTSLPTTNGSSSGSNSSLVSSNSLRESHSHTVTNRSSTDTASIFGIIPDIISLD

Experiments:
[1] = biological target: T1, DHX36 (human (endogenous in SKOV3 or COV504 cells)) (UniProt Q9H2U1); assay: co-IP; endogenous proteins; anti-DHX36 or anti-PIAS1 antibody, Dynabeads Protein G; lysis buffer 50 mM Tris-HCl pH 8.0, 150 mM NaCl, 1% NP40, 1 mM DTT; western blot; also in cells overexpressing lncRNA CATED (more co-precipitate)
T1 sequence: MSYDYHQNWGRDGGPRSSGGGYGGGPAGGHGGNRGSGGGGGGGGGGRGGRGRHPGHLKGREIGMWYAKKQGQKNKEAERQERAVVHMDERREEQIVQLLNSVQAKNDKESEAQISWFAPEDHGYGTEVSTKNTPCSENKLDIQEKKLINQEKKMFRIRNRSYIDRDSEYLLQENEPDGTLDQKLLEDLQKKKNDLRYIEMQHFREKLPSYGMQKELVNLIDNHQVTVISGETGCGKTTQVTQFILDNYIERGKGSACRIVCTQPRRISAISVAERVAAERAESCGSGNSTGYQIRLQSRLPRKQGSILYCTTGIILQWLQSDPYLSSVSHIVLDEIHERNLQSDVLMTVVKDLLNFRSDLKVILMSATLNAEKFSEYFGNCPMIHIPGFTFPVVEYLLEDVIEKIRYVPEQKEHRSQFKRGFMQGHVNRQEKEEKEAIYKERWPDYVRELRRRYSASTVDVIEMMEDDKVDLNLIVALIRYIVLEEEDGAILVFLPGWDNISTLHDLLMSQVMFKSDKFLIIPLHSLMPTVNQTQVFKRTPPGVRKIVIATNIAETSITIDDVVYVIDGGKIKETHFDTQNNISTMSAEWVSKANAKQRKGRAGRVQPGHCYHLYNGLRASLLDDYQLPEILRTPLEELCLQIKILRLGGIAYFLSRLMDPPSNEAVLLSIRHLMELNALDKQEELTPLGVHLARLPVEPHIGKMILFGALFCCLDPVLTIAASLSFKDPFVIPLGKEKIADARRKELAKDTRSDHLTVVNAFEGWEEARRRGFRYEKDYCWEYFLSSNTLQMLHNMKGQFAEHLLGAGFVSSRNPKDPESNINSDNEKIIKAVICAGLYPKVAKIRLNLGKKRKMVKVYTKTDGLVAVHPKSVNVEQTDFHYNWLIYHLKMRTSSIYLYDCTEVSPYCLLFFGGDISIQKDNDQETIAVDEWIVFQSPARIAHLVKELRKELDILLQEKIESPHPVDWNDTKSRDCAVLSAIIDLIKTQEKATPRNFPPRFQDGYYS

[2] = biological target: T2, FLAG-tagged DHX36 with deletion of 747–779 aa (UniProt Q9H2U1); assay: co-IP; FLAG-DHX36 (WT or 747-779 deletion) co-transfected with HA-PIAS1 in SKOV3 cells; text: FLAG co-IP; legend: anti-HA co-IP, FLAG blot
T2 sequence: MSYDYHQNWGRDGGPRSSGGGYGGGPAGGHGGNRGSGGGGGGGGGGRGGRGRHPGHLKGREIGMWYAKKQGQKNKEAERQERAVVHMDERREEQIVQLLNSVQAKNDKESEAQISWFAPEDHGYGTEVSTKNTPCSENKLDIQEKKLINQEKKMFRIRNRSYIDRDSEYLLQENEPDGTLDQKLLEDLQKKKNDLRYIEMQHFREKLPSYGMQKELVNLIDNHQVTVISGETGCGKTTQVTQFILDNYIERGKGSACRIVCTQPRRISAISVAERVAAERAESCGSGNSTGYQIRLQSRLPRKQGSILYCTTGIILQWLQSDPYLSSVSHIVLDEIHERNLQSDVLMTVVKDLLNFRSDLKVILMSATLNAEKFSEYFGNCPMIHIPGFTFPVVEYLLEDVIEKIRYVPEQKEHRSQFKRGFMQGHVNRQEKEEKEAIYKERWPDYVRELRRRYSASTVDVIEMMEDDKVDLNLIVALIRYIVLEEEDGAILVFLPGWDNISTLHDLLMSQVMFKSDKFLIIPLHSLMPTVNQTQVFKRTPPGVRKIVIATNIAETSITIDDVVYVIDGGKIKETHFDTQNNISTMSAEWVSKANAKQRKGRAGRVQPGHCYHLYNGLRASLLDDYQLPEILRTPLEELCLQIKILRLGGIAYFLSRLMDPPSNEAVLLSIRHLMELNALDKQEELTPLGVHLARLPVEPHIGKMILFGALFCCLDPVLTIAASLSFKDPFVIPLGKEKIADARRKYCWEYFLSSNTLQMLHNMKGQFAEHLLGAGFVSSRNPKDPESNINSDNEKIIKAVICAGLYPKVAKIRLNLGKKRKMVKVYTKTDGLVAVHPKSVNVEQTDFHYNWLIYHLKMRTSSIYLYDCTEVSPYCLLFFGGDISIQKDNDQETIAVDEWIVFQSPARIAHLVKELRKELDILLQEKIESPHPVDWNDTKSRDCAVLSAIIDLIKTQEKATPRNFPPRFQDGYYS

binding [1]	binding [2]	Substance
binds	–	PIAS1 (from UniProt O75925 1-651)
–	no binding	HA-PIAS1 (from UniProt O75925 1-651)
